From article PMC9119445, “Ustilago maydis telomere protein Pot1 harbors an extra N-terminal OB fold and regulates homology-directed DNA repair factors in a dichotomous and context-dependent manner”
No constants are given. Whether binding was seen depends on the method and setting. Binding calls can cover weak binding; strength is not graded here.

Experiments:
[1] = biological target: Ustilago maydis Pot1 with a C-terminal FLAG tag (Pot1-FLAG) (U. maydis); test: pull-down; Pot1-FLAG (or FLAG-tagged truncation variant) immobilised on anti-FLAG resin; 1 μM purified Rad51 or MBP-Brh2/DSS1 complex; 4°C, 1 h, FLAG(65) buffer (50 mM Tris-HCl pH 7.5, 65 mM NaCl, 10% glycerol, 0.1% NP-40, 2.5 mM MgCl2, 1 mM DTT); washes at 100 mM NaCl; elution with FLAG3 peptide; Western blot (anti-Rad51, anti-MBP, anti-FLAG); also with Benzonase (no effect); both purified
[2] = biological target: Pot1 OB-N domain fragment, FLAG-tagged (U. maydis); test: as above

B1: Ustilago maydis Rad51 (protein, UniProt Q99133 1-339)
chain: MSQNAQDPAQIGEDDMGEAFGPLPVSKLEEFGISSSDCKKLAESGYNTVESIAFTPKKQLLLVKGVSEAKADKILAEAARLVPMGFTTATEFHARRNELISITTGSKNLDAILGGGMETGSITELYGEFRTGKSQLCHTLAVTCQLPVDMGGGEGKCLYIDTENTFRPTRLLAVAERFGLNGEEVLDNVAYARAYNADHQLQLLMQASAMMAESRFSLLIVDSLTSLYRTDFSGRGELSARQMHLAKFLRGLMRLADEFGVAVVITNQVVAQVDGATAFTADAKKPIGGNIVAHASTTRLSLRKGRGNQRICRIADSPCLPEADAVFAIGPEGIIDPVD
With B1 the binding [1] was “binds” and the binding [2] was “binds”.
